From PMC11628322 come the findings set out here.

Amino acid sequences for entries named in this document (tags omitted). Residues count along the entry.
UniProt P30530, residues 26-894: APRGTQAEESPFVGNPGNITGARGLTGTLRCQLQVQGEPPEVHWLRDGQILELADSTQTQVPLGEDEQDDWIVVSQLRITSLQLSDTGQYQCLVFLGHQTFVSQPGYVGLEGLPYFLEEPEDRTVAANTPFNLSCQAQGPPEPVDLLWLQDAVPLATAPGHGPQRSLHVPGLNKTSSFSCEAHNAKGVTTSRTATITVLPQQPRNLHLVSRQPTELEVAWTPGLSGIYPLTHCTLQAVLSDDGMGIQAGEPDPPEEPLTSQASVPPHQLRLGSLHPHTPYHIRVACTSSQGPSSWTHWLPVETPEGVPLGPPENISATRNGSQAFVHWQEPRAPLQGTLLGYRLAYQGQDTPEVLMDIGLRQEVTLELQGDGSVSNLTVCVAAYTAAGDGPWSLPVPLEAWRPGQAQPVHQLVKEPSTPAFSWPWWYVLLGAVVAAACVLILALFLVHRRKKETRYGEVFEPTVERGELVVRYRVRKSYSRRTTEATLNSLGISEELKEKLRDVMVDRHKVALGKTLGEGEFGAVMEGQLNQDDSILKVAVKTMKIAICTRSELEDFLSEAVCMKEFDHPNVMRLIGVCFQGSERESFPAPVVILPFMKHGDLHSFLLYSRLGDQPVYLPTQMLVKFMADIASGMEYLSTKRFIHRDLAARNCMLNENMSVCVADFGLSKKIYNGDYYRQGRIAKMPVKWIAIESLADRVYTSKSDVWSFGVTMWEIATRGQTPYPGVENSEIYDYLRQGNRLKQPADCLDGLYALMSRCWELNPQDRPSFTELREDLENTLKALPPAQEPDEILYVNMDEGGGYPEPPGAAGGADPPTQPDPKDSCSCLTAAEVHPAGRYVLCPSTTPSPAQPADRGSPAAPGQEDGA

The target in the test is T1, Flag-PFKP (Phosphofructokinase, Platelet Type, labeled with a 3x Flag tag) (UniProt Q01813).
T1 sequence: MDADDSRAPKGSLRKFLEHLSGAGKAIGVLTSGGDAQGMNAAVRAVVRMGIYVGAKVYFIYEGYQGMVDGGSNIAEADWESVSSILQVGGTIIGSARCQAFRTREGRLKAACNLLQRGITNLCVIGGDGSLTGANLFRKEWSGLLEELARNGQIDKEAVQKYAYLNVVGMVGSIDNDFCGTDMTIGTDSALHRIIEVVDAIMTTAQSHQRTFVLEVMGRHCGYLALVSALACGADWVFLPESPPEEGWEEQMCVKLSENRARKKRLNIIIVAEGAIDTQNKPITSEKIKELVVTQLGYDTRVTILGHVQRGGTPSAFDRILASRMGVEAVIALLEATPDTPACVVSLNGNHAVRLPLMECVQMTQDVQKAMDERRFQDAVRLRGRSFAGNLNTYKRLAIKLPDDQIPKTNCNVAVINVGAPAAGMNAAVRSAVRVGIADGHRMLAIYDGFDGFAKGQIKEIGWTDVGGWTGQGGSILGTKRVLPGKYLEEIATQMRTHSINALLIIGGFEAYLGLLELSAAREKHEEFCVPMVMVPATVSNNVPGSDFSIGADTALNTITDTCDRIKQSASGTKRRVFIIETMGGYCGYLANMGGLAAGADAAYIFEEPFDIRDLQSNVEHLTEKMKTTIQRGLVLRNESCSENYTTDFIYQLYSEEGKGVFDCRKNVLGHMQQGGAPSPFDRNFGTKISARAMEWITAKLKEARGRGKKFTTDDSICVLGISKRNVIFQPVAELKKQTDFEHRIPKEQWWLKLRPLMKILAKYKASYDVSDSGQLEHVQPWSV
Nature of the test: affinity purification with mass spectrometry; anti-Flag magnetic beads on lysate (IP lysis buffer) of H1299 cells with Flag-PFKP overexpression, empty vector as negative control; beads sent for 60 min mass spectrum analysis.

Results are given in words; binding and its absence hold for the method and conditions named. In cells and extracts the contact can be indirect. A yes stands for co-enrichment or nearness to the bait. Other partners may have been found. Sequences can lack the tags named with a protein.

For the substance “tyrosine-protein kinase receptor UFO (AXL) (from UniProt P30530 26-894)”, the binding entry was “binds”.
